Laboratory results as given in patent publication US12054501B2, “Compositions and methods for inhibiting arginase activity” (Precision Pharmaceuticals Inc., priority 2016, dated 2024).
At least one structure is not confirmed: it was looked up by name or label, or the drawing left a doubt.

Legend:
[1] = Moisture sorption/desorption isotherm (TGA study, humidity uptake); assay type: physicochemical
Protocol: In the TGA study, a weighted amount of compound 10e was treated with increasing amounts of water vapor (increased humidity) and the impact of humidity on the weight of the sample was evaluated.

[2] = Hydrolysis of the ethanolate in water (NMR in D2O, HPLC-MS); assay type: physicochemical
Protocol: The rapid conversion of compound 10e to compound 10 in water was confirmed by the similarity of a spectrum of 10e in D2O to a spectrum of 10 in D2O. When a sample of compound 10e was dissolved in D2O and the spectra immediately recorded (elapsed time <5 minutes), the spectra observed is identical to a spectra of compound 10 (the free boronic acid) plus ethanol (1:1 ratio). The spectrum of 10e in D2O was the same at 5 minutes and one hour after sample preparation, indicating the transformation was rapid and complete after a few minutes.
The NMR spectra (D2O) labeled A is compound 10 (free base) prepared from 11 as described in Example 2. The NMR spectra (D2O) labeled B is an analytical sample of compound 10e prepared as described above. The NMR spectra (D2O) labeled C is the sample from spectra B that has been lyophilized and redissolved in D2O.
Upon dissolution in 1:1 water/acetonitrile and immediate injection into an HPLC system, only a single peak is observed. The mass of this peak is consistent with compound 10.

CCOB1CCC[C@H]2CN(C(=O)[C@H](C)N)C[C@@]2(N)C(=O)O1 [Compound 10e, (6aS,9aR)-8-(L-alanyl)-9a-amino-3-ethoxyoctahydro-[1,2]oxaborocino[6,7-c]pyrrol-1(3H)-one]
hysteresis of sorption and desorption isotherms [1]: significant hysteresis | relative humidity up to which the compound resists water uptake [1]: about 60 % relative humidity | water absorbed (sorption isotherm) ([1]; between 60 and 90% RH): up to 40 wt percent | hygroscopicity ([1]; in conditions below 60% RH): not notably hygroscopic | HPLC-MS after dissolution ([2]; 1:1 water/acetonitrile, immediate injection): No mass is seen for intact compound 10e | time after dissolution at which the spectrum is identical to compound 10 plus ethanol (conversion to free boronic acid) ([2]; dissolved in D2O, NMR recorded immediately): < 5 min
